Results: publication PMC10582465

Chains of the proteins cited; added tags and fusions are not shown.
UniProt P19474: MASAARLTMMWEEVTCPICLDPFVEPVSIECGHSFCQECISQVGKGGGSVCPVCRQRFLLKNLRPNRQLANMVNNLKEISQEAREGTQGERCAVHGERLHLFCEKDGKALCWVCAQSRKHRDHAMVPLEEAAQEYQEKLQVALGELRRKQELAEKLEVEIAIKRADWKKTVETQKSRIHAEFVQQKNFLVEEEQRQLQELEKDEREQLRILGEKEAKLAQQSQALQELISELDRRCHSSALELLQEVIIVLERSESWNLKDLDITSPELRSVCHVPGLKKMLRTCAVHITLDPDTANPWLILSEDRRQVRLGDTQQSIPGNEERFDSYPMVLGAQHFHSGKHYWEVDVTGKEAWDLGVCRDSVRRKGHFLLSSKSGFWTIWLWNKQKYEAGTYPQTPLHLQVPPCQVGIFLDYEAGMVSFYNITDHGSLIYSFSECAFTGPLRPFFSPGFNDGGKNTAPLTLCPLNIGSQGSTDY

Target: T1, Flag-FSP1 (Ferroptosis Suppressor Protein 1) (human) (UniProt Q9BRQ8)
T1 sequence: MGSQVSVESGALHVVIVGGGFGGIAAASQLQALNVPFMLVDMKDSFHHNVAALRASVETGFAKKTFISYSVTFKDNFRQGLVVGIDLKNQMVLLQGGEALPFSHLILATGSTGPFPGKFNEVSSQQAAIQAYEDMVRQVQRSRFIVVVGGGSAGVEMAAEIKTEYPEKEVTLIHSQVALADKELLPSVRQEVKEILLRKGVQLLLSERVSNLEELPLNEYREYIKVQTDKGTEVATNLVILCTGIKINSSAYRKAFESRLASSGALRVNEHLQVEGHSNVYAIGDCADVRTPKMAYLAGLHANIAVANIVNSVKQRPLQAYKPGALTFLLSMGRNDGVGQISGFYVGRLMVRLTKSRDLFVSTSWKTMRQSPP
Experiment: affinity purification with mass spectrometry; immunoprecipitation of Flag-FSP1 from HEK293T cells stably expressing it, mass spectrometry of the immunoprecipitate

binding: binds
Substance: TRIM21 (Tripartite Motif-Containing Protein 21), endogenous in HEK293T (from UniProt P19474 1-475)

These are yes or no findings as the source states them, for the method shown. Binding seen in cells or lysates may run through a third protein. These calls come from enrichment with a bait or labelling near it, and not all partners need be listed. Sequences can lack the tags named with a protein.
